# Reference: PubChem BioAssay AID624297 (National Center for Advancing Translational Sciences (NCATS), 2012)
# In all, about 340,000 compounds went through this assay and about 6,200 (1.8%) were called active. The inconclusive results got no clear call from the source; some entries with a clear call stand among them for comparison. Calls come from the whole dose curve; as a rule, active = well fitted activation curve with a large enough effect; inconclusive = small, poorly fitted or top-dose-only effect; inactive = no such curve, though single readings can be large or run the other way. Potencies beside an inconclusive call are fits to weak or partial responses and may not hold up.
# Assay: A quantitative high throughput screen for small molecules that induce DNA re-replication in SW480 colon adenocarcinoma cells. For re-replication activation: % of control where 0% means no effect. Note: nearly all actives have a fitted effect of over 55% in size.
# Settings: Hoechst DNA content imaging, 48 h; re-replication activation: at 46.1 µM (top of the series) unless noted
# Summary of the method: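 Image-based DNA-content assay: after two days of treatment, nuclei were labelled with the DNA dye Hoechst and imaged, and hits were compounds raising the count of nuclei showing high fluorescence intensity.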
# Potency is the fitted concentration of half-maximal effect.
SMILES,re-replication activation,Potency
CCn1c(CCNC(=O)c2ccc(OC)cc2)nnc1SCc1ccc(Cl)c(Cl)c1,inactive: -134%,
CC(=O)O[C@H]1CC(C)(C)C(=C=C/C(C)=C/C=C/C(C)=C/C=C/C=C(C)/C=C/C=C(\C)C(=O)C[C@@]23O[C@]2(C)C[C@@H](O)CC3(C)C)[C@](C)(O)C1,,"inconclusive: 16.4 µM [activator, single point]"
Cc1ccc(-c2noc(CCC(=O)NCCN3CCOCC3)n2)cc1,inactive: -5.19%,
CN[C@@H](C)C(=O)NC[C@H]1O[C@@H](n2cnc3c(N)ncnc32)[C@H](O)[C@@H]1O,,"inconclusive: 29.1 µM [activator, single point]"
COc1ccc(/C=N/N=C2/NC(=O)C(CC(=O)O)S2)cc1OCc1ccc(Cl)cc1 (centres undefined),inactive: -0.998%,
O=C(O)Cc1csc(NC(=O)CSc2nnnn2-c2ccc(O)cc2)n1,,"inconclusive: 0.517 µM [activator, full curve, poor fit]"
CCOC(=O)c1c(SCCN2CCCC2)n(-c2ccccc2)c(=S)n(-c2ccccc2)c1=O,,active: 6.51 µM
CCC(C(=O)OC(C)C)c1ccc2ccccc2c1 (centres undefined),inactive: -10.7%,
NNc1nc(Nc2ccccc2)nc(Nc2ccccc2)n1,,"inconclusive: 29.1 µM [activator, single point]"
O=C(Nc1ccc(Cl)cc1)Nc1nnc(CSCc2ccc(Cl)cc2)s1,,"inconclusive: 23.1 µM [activator, single point]"
O=c1c2ccccc2[nH]c2ccc(F)cc12,,active: 16.4 µM
COc1cc(NC(=O)C2CC(c3ccc(Cl)cc3)=NO2)cc(OC)c1OC (centres undefined),inactive: -0.0671%,
COc1cccc(NC(=O)c2ccc(N3C(=O)C4CC=CCC4C3=O)cc2)c1 (centres undefined),inactive: -17.2%,
Cc1ccc(-n2c(SCC(=O)N/N=C/c3c(C)nn(-c4ccccc4)c3C)nc3ccccc3c2=O)cc1,inactive: -2.9%,
COc1cc2sc3cc(NCc4ccc5c(c4)OCO5)ccc3c(=O)c2cc1OC,,"inconclusive: 29.1 µM [activator, partial curve, poor fit]"
CC1(NC(=O)CCc2nc3sc4c(c3c(=O)[nH]2)CCCC4)CCS(=O)(=O)C1 (centres undefined),,"inconclusive: 29.1 µM [activator, partial curve, poor fit]"
COCCNC(=O)C(NC(=O)C1CCCCC1)C12CC3CC(CC(C3)C1)C2 (centres undefined),inactive: 2.82%,
COc1cccc(/C(O)=C2\C(=O)C(=O)N(c3ccccn3)C2c2cccc(OC)c2OC)c1 (centres undefined),inactive: -13%,
CC(=O)Nc1ccc(NC(=O)C(C)OC(=O)c2ccc(S(=O)(=O)N3CCCCCC3)cc2)cc1 (centres undefined),,"inconclusive: 20.6 µM [activator, single point]"

# Arranged by SMILES length (largest number first): 4 of the compounds above.
SMILES,re-replication activation,Potency
CC(=O)Nc1ccc(NC(=O)C(C)OC(=O)c2ccc(S(=O)(=O)N3CCCCCC3)cc2)cc1 (centres undefined),,"inconclusive: 20.6 µM [activator, single point]"
CCOC(=O)c1c(SCCN2CCCC2)n(-c2ccccc2)c(=S)n(-c2ccccc2)c1=O,,active: 6.51 µM
COCCNC(=O)C(NC(=O)C1CCCCC1)C12CC3CC(CC(C3)C1)C2 (centres undefined),inactive: 2.82%,
CCC(C(=O)OC(C)C)c1ccc2ccccc2c1 (centres undefined),inactive: -10.7%,
